PubChem BioAssay AID1345085 (National Center for Advancing Translational Sciences (NCATS), 2018)
The inconclusive results got no clear call from the source; some entries with a clear call stand among them for comparison. A potency beside an inconclusive call is a rough fit, not a confirmed value. Active and inactive are the calls of the source. Calls come from the whole dose curve; as a rule, active = well fitted cell-killing curve with a large enough effect; inconclusive = small, poorly fitted or top-dose-only effect, or effect the other way; inactive = no such curve, though single readings can be large or run the other way.
Note: nearly all actives have a fitted effect of over 55% in size.
Potency is the fitted concentration of half-maximal effect.

What follows are molecules tested on SKOV3 (assay: Confirmatory qHTS for gynecologic anti-cancer compounds from libraries of approved drugs and bioactive compounds). Conditions: gynecologic cancer cell panel viability, ATPlite luminescence, 48 h; series mostly up to 57.6 µM.
In short: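 Viability is measured as ATP-dependent luciferase light using ATPlite, read 15 min after reagent addition at room temperature. Compounds, in DMSO, span 57.5 uM down to 0.977 nM over 11 threefold steps for 48 h.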
For `O=C(Nc1cccnc1)N1CCC(Cc2cccc(Oc3ccc(C(F)(F)F)cn3)c2)CC1`, the Potency was inconclusive: 0.0685 µM [rising, partial curve, poor fit]. For `O=C(O)c1ccc(Nc2ncc3c(n2)-c2ccc(Cl)cc2C(c2c(F)cccc2F)=NC3)cc1`, the Potency was “inactive”. `Cc1ccc(C(=O)Nc2cccc(C(F)(F)F)c2)cc1-c1ccc2nc(NCCN3CCOCC3)ncc2c1` was tested, and the Potency was active: 12.2 µM. In the case of `COc1ccccc1N1CCN(CC(O)COc2cccc3ccccc23)CC1` (stereo not drawn), the Potency is reported as inconclusive: 15.3 µM [rising, single point]. With `Cc1cc(SCc2sc(-c3ccc(C(F)(F)F)cc3)nc2C)ccc1OCC(=O)O` the Potency was “inactive”. For `Nc1nc(=S)c2[nH]cnc2[nH]1`, the Potency was inconclusive: 4.32 µM [cytotoxic, full curve, poor fit]. In the case of `CC[C@]1(O)C[C@H]2CN(CCc3c([nH]c4ccccc34)[C@@](C(=O)OC)(c3cc4c(cc3OC)N(C=O)[C@H]3[C@@](O)(C(=O)OC)[C@H](OC(C)=O)[C@]5(CC)C=CCN6CC[C@]43[C@@H]65)C2)C1`, the Potency is reported as “inactive”. In the case of `CC(=O)O[C@H]1C(=O)[C@@]2(C)[C@H]([C@H](OC(=O)c3ccccc3)[C@]3(O)C[C@H](OC(=O)[C@H](O)[C@@H](NC(=O)c4ccccc4)c4ccccc4)C(C)=C1C3(C)C)[C@]1(OC(C)=O)CO[C@@H]1C[C@@H]2O`, the Potency is reported as inconclusive: 0.0146 µM [cytotoxic, full curve]. `CN(c1nccc(=O)[nH]1)C1CCN(c2nc3ccccc3n2Cc2ccc(F)cc2)CC1` was tested, and the Potency was “inactive”. `Cc1nc(N)sc1-c1ccnc(Nc2ccc(N3CCOCC3)cc2)n1` was tested, and the Potency was inconclusive: 0.172 µM [cytotoxic, full curve]. `NCCOc1cc(C(=O)Nc2cc(OCCN)c3ccccc3n2)nc(C(=O)Nc2cc(OCCN)c3ccccc3n2)c1` was tested, and the Potency was inconclusive: 12.2 µM [cytotoxic, partial curve, poor fit]. With `CCCC(Nc1nc(-c2ccc(NC(=O)NCC)c(OC)c2)ncc1C)c1cccnc1` (stereo not drawn) the Potency was inconclusive: 0.153 µM [cytotoxic, single point]. In the case of `CC(C)c1nn(-c2c(Cl)cccc2Cl)c2nc(Cc3ccc(OCCO)cc3)[nH]c(=O)c12`, the Potency is reported as inconclusive: 1.72 µM [cytotoxic, full curve, poor fit]. `Cc1cncc2cccc(S(=O)(=O)N3CCCN(C(=O)CN)C[C@@H]3C)c12` was tested, and the Potency was “inactive”. With `c1nc2nc(Nc3ccc(N4CCOCC4)cc3)nc(NC3CCCCC3)c2[nH]1` the Potency was “inactive”. For `O=C1N(c2ccccc2)c2ccccc2C1(Cc1ccncc1)Cc1ccncc1`, the Potency was inconclusive: 1.22 µM [rising, partial curve, poor fit]. In the case of `NC(=O)c1ccc2nc(-c3ccc(Oc4ccc(Cl)cc4)cc3)[nH]c2c1`, the Potency is reported as “inactive”. With `COc1cc2c(cc1-c1c(C)noc1C)ncc1[nH]c(=O)n(C(C)c3ccccn3)c12` (stereo not drawn) the Potency was “inactive”. `COC(C)(C)CCn1nc(Nc2c(C)cccc2C)c2cnc(Nc3ccc(OCCN4CCCC4)c(F)c3)nc21` was tested, and the Potency was inconclusive: 24.3 µM [cytotoxic, single point]. In the case of `O=c1c2ccccc2nc2n1CCc1c-2[nH]c2ccccc12`, the Potency is reported as inconclusive: 2.43 µM [cytotoxic, full curve]. In the case of `CC[C@@]1(O)C(=O)OCc2c1cc1n(c2=O)Cc2cc3c(CN(C)C)c(O)ccc3nc2-1`, the Potency is reported as active: 0.544 µM. `CN(C)c1ccc(-c2nc3ncc(Cl)c(N4CCN(CC(=O)Nc5nccs5)CC4)c3[nH]2)cc1` was tested, and the Potency was inconclusive: 0.0009 µM. In the case of `O=C(CCCCCCC(=O)Nc1ccccc1)NO`, the Potency is reported as active: 1.37 µM. In the case of `O=C1NC(=O)C(c2cnc3ccccn23)=C1c1cn2c3c(cccc13)CN(C(=O)N1CCOCC1)CC2`, the Potency is reported as inconclusive: 0.863 µM [cytotoxic, full curve]. With `c1cc(N[C@@H]2CCNC2)nc(-c2cnc3ccc(-c4cn[nH]c4)cn23)c1` the Potency was “inactive”. With `OC[C@H]1O[C@@H](n2cnc3c(=S)nc[nH]c32)[C@H](O)[C@@H]1O` the Potency was inconclusive: 5.44 µM [cytotoxic, full curve]. With `COc1c(C)c2c(c(O)c1C/C=C(\C)CCC(=O)OCCN1CCOCC1)C(=O)OC2` the Potency was inconclusive: 6.11 µM [cytotoxic, full curve]. In the case of `OCc1ccc(-c2ccc(-c3ccc(CO)s3)o2)s1`, the Potency is reported as inconclusive: 1.33 µM [cytotoxic, partial curve, poor fit].
